No constants are given. Whether binding was seen depends on the method and setting. Binding seen in cells or lysates may run through a third protein. Here binding means that the protein was enriched with, or labelled near, the bait; the list need not be complete. No binding means not detected with the bait. Sequences can lack the tags named with a protein.
The substances below were run against T1, PprA::HA fusion protein (D. radiodurans) (UniProt O32504) (assay: affinity purification with mass spectrometry; anti-HA immunoprecipitation (protein G magnetic beads) of PprA::HA from extracts of D. radiodurans GY14615 exposed to 3.8 kGy gamma radiation and recovered 110 min; lysis buffer A (50 mM Tris pH 7.5, 100 mM NaCl, 5 mM MgCl2, 1 mM DTT, 0.5% Triton X-100), 10°C; shotgun MS-MS; compared with nonirradiated cells and with irradiated ΔpprA cells).
T1 sequence: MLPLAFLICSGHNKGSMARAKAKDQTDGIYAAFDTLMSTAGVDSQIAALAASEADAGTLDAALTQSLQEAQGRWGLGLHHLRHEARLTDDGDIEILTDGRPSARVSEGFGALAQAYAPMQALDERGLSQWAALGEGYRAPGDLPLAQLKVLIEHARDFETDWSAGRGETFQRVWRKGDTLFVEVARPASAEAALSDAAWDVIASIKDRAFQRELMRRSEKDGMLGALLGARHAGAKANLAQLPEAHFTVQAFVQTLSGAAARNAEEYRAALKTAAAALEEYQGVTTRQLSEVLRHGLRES

Amino acid sequences for entries named in this document (tags omitted). A change or cut given only in a name is not applied to a line headed by its entry.
UniProt Q9R342: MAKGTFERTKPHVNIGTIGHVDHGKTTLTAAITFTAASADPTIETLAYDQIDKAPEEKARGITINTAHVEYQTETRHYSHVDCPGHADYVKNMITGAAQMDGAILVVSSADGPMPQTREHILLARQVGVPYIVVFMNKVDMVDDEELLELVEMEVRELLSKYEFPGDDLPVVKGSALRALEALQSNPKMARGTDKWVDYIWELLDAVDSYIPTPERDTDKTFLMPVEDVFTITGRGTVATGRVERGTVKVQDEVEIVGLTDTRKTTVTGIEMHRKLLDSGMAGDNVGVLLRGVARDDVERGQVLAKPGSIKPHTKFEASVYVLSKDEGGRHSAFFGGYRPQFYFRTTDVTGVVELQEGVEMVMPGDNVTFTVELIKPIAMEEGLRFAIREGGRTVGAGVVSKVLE
UniProt Q9RVW5: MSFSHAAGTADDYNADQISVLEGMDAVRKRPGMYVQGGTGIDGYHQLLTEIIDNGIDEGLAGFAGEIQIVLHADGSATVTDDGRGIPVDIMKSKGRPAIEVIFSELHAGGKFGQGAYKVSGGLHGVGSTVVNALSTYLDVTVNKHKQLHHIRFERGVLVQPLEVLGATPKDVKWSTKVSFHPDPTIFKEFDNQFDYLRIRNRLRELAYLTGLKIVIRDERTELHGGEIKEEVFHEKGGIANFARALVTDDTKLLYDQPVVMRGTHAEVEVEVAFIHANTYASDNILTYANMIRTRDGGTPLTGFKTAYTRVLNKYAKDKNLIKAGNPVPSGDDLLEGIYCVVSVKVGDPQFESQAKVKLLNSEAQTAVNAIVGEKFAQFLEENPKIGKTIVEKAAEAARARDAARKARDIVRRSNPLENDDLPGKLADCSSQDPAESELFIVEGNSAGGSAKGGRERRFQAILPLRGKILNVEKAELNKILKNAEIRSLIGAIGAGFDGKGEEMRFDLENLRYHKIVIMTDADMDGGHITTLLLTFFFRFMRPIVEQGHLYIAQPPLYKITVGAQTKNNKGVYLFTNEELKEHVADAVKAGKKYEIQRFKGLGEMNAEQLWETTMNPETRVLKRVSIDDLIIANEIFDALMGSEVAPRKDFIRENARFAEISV
UniProt P56867: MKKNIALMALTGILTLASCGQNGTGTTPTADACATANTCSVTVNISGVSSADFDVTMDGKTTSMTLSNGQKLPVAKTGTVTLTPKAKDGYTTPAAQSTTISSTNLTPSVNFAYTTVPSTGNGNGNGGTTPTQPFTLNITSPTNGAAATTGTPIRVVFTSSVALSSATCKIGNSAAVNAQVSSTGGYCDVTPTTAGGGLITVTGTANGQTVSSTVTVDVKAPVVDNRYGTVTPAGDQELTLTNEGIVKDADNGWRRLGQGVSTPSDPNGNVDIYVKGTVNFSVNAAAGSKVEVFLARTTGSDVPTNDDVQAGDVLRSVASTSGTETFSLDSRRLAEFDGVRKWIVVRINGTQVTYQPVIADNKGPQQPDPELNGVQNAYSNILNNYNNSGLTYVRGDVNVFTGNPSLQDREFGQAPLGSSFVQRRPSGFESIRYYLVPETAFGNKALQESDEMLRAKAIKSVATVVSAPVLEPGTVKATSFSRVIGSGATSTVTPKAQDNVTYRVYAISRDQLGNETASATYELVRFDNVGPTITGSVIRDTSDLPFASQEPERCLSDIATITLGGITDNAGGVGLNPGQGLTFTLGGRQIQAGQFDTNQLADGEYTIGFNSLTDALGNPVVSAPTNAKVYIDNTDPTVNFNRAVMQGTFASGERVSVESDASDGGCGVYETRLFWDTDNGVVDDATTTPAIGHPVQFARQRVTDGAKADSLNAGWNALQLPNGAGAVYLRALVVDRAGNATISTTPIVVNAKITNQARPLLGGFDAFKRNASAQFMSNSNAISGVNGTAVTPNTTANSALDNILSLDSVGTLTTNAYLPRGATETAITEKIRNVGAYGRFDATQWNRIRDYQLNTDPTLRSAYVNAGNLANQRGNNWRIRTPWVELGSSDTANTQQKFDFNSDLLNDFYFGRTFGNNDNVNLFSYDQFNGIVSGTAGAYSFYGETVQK
UniProt Q9RT14: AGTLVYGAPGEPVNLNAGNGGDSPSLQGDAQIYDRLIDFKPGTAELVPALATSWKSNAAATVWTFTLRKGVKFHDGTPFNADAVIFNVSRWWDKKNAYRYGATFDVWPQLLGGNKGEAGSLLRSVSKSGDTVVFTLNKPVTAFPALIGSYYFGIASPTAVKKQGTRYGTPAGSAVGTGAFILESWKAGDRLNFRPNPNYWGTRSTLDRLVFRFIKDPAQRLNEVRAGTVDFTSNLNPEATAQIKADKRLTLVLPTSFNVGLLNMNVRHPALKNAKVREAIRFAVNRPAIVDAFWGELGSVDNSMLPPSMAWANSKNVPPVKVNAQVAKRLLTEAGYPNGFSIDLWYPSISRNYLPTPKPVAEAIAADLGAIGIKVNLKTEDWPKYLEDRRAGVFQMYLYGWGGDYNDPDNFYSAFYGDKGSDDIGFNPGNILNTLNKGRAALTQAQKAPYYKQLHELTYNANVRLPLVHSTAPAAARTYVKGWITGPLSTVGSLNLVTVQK

Row | binding | Substance
1 | no binding | DNA topoisomerase IB
2 | binds | Elongation factor Tu (from UniProt Q9R342 1-405)

Second part, the substance before the results:

Row | Substance | binding
3 | DNA gyrase subunit B (from UniProt Q9RVW5) | binds
4 | Hexagonally packed intermediate layer surface protein (from UniProt P56867) | binds
5 | Peptide ABC transporter substrate-binding protein (from UniProt Q9RT14) | binds
6 | RNA helicase | binds

Reference: article PMC4863600
